From PubChem BioAssay AID504582 (Broad Institute, 2011)
Hit rate of the full screen: of about 340,000 compounds, about 2,300 (0.68%) were called active. The shares of active, inactive and inconclusive entries below differ from those in the screen. No stated cut-off is given here; in the data, active means growth rescue above about 28% (passing the limit was not always enough); inconclusive means no clear call, values can overlap the other calls.

Assay: rescue of yeast from PfHsp40 toxicity, primary screen, S. cerevisiae, ATP luminescence (AID 504582);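 further: yeast W303a lacking pdr1 and pdr3 grown in galactose medium; growth measured after three days at 30 °C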
Settings: S. cerevisiae expressing PfHsp40, growth rescue, at 12.5 µM, hits give high values

Row | Compound | growth rescue
1 | COCCC(=O)N1CCC(Oc2ccc(C(=O)N3CCCCCC3)cc2)CC1 | inactive: -0.683%
2 | Cc1c(Cc2ccccc2)c(=O)n2c([nH]c3ccccc32)c1C#N | inactive: -0.154%
3 | Cc1cc(NC(=O)c2c(-c3c(Cl)cccc3Cl)noc2C)n(C)n1 | inconclusive: 26.1%
4 | Clc1ccc(CSc2nnc(-c3ccccn3)n2Cc2ccco2)c(Cl)c1 | inactive: 0.987%
5 | COc1ccc(C(=O)O/N=C(\N)Cc2ccc(Cl)c(Cl)c2)cc1OC | inconclusive: 30%
6 | COC(=O)C1=C(c2ccc(S(C)(=O)=O)cc2)C[C@@H]2CC[C@H]1N2C(=O)NCCS(C)=O (stereo partly specified) | inconclusive: 27.1%
7 | Cc1ccc(C2C(C#N)=C(N)Oc3n[nH]c(-c4cccs4)c32)s1 (stereo unspecified) | inactive: -1.86%
8 | O=C(COc1ccc(F)cc1)N/N=C/c1cccc2cccnc12 | inactive: 7.68%
9 | O=C(NCC1CCCO1)c1cc([N+](=O)[O-])ccc1N1CCC(Cc2ccccc2)CC1 (stereo unspecified) | inconclusive: 50%
10 | CCOc1ccccc1-c1c2cc(O)c(=O)cc-2oc2cc(O)c(O)cc12 | inconclusive: 191%
11 | Cc1csc(NC(=O)CSc2ccc(-c3ccccn3)nn2)n1 | inconclusive: 192%
12 | Cc1ccc(O)c(-c2cc(-c3cccc(F)c3)n[nH]2)c1 | inconclusive: 226%
13 | N#Cc1ccc(OS(=O)(=O)c2ccc(-c3ccon3)s2)cc1 | inactive: 0.175%
14 | CC(=O)Nc1ccc(Sc2ncnc3scc(-c4ccccc4)c23)cc1 | inconclusive: 35.3%
15 | CCOC(=O)C1=C(N)N2C(=O)C(C)SC2=C(C(=O)OC)C1c1cccc(OC)c1 (stereo unspecified) | inconclusive: 54.2%
16 | CCn1c(SCC(=O)Nc2ccc(OC)cc2)nc2c(c1=O)SCC2 | inactive: 0.41%
17 | CS(=O)(=O)CCN1CC2CCCC(C2)C1 | inconclusive: 29.9%
18 | CCOC(=O)C1SC2(C(F)F)CC1(O)c1c(c(OC)c3occc3c1OC)O2 (stereo unspecified) | active: 38.1%
19 | C=CCN(C(C(=O)OC)C(C)C)S(=O)(=O)CCNCc1ccccc1 (stereo unspecified) | inconclusive: 40%

Row | Compound | growth rescue
20 | CCC(C)Sc1cc(-c2nc3ccc(C)cn3c2NCc2ccccc2)ccc1OC (stereo unspecified) | inconclusive: 144%
21 | Cc1ccc(C(=O)N2CCC(N3CCC(C(=O)N4CCOCC4)CC3)CC2)cc1C | inactive: -1.5%
22 | O=C(Nc1cccc(O)c1)c1ccc2c(c1)C(=O)N(Cc1ccco1)C2=O | inactive: -1.37%
23 | CCCc1ccc(Oc2c(-c3ccc(O)c(C)c3O)n[nH]c2C)cc1 | inactive: 2.61%
24 | CC(=O)N1c2c(cc(Br)cc2S(=O)(=O)N2CCN(c3ccccn3)CC2)CC1C (stereo unspecified) | active: 52.5%
25 | CCOC(=O)c1cnc(-n2nc(C)cc2C)nc1NCc1ccccc1 | inconclusive: 85.8%
26 | Cn1c2ccccc2c2c(C(=O)N3CCC4(CC3)OCCO4)cn(C3CCCC3)c(=O)c21 | inconclusive: 33.2%
27 | CC1CCCC(NC(=S)NC(=O)c2ccco2)C1C (stereo unspecified) | inconclusive: 26.7%
28 | CC(C)(C)c1cc(CCC(=O)N2CCCC2)cc(C(C)(C)C)c1O | inconclusive: 27.9%
29 | CC(=O)Nc1ccc(CCc2nc3ccccc3[nH]2)cc1 | inconclusive: 51.5%
30 | O=[N+]([O-])c1cccc(-c2nnc(-c3ccccc3F)o2)c1 | inconclusive: 27.1%
31 | Cc1cccc2cc3c(N)c(C#N)sc3nc12 | inconclusive: 163%
32 | CCN(CC)CCn1nc(C)nc1-c1ccccc1O | inconclusive: 36.9%
33 | Fc1ccc(C(OCCN2CCCC2)c2ccc(Br)cc2)cc1 (stereo unspecified) | inconclusive: 67.6%
34 | O=C1COc2ccc(S(=O)(=O)N3CCN(c4cccc(Cl)c4)CC3)cc2N1 | active: 53.4%
35 | Cc1nc2ccc(NC(=O)COc3ccccc3F)cc2s1 | inconclusive: 395%
36 | CSCC[C@H](NC(=O)NCc1cccs1)C(=O)O | inconclusive: 26.3%
37 | O=C(CC1C(=O)NCCN1C(=O)Nc1ccccc1)Nc1ccc(F)cc1 (stereo unspecified) | inactive: -1.02%
38 | Cc1ccccc1S(=O)(=O)Cc1ccc(C(=O)NCCCN2CCC(C)CC2)o1 | inactive: 2.46%

Of the compounds above, these have bromine.
Row | Compound | growth rescue
24 | CC(=O)N1c2c(cc(Br)cc2S(=O)(=O)N2CCN(c3ccccn3)CC2)CC1C (stereo unspecified) | active: 52.5%
33 | Fc1ccc(C(OCCN2CCCC2)c2ccc(Br)cc2)cc1 (stereo unspecified) | inconclusive: 67.6%

(listing goes on)

Row | Compound | growth rescue
39 | C=CC[C@H](CC(=O)OC(C)(C)C)C(=O)OC[C@@H]1CCCN1C(=O)[C@@H](CC=C)CC(=O)N[C@H](CO)Cc1ccccc1 | inconclusive: 36.9%
40 | COc1ccc(NC(=O)CSc2nnc(-c3ccoc3C)n2CC2CCCO2)cc1 (stereo unspecified) | inconclusive: 29.4%
41 | CC(CNC(=O)COc1ccccc1)OC(=O)Nc1ccc(Cl)c(Cl)c1 (stereo unspecified) | active: 200%
42 | CN(C)/C=C/C(=O)c1ccc(Cl)c([N+](=O)[O-])c1 | inactive: -1.23%
43 | O=C(/C=C/c1ccco1)NC(=S)Nc1ccccc1N1CCCC1 | active: 58.9%
44 | O=C(N/N=C/c1cc(Cl)c(O)c(Cl)c1)c1cc2c(ccc3ccccc32)o1 | inconclusive: 25.7%
45 | O=C(Oc1ccc2c(c1)O/C(=C\c1ccncc1)C2=O)c1ccccc1 | inactive: -0.844%
46 | CC(=O)c1ccc(NC(=O)CNCC(c2ccccc2)N(C)C)cc1 (stereo unspecified) | inconclusive: 25.3%
47 | Cc1ccc2ccc3ccc(C)nc3c2n1 | inconclusive: 31.2%
48 | C/C(O)=C(\C#N)C(=O)Nc1cc(Br)ccc1Br | inconclusive: 30.4%
49 | O=C(NCCc1ccccc1)c1nc2c(nnn2Cc2ccccc2Cl)c(=O)[nH]1 | inconclusive: 30%
50 | Cc1onc(-c2ccc3c(c2)OCO3)c1-c1ccc2[nH]ccc2c1 | inconclusive: 51.3%
51 | Cc1sc2nc(-c3cccnc3)nc(Cl)c2c1-c1ccccc1 | inconclusive: 29.3%
52 | O=C(NCc1ccc2c(c1)OCO2)c1cccc(C(=O)NCc2ccc3c(c2)OCO3)c1 | inactive: -0.864%
53 | CCOc1ccccc1/C=C/c1cc(C(=O)O)c2ccccc2n1 | inconclusive: 25.4%
54 | C=CC[C@@H](Cc1ccc(F)cc1)C(=O)OC[C@@H]1CCCN1C(=O)[C@H](CC=C)CC(=O)N[C@H](CO)Cc1ccccc1 | inconclusive: 26.6%
55 | O=C(Cc1cccc(NC(=O)C2CCN(C(=O)C3CCC3)CC2)c1)Nc1cccc(C(=O)N2CCCC2)c1 | inconclusive: 37.4%
56 | Cn1c(=O)c2nc(-c3ccccc3)oc2c2ccccc21 | inconclusive: 31.6%
